Laboratory results reported in patent publication US12698473B2, “Cell-containing structure” (Ricoh Company, Ltd., priority 2021, dated 2026).
Some results were stated once for a whole list of compounds, not compound by compound.

System: cultured product composed of cell masses containing hiPSC-Neuron and astrocytes derived from a human fetus
Assay: Evaluation of electrophysiological neurotoxicity of test compound: firing frequency response on MEA plate
Type: cell-based
Details: spontaneous firing frequency before exposure 4 Hz or more and less than 100 Hz per 16 electrodes; FIG. 10
Protocol: A multi-electrode array (MEA) plate was prepared as a cell-containing container which is a cell-containing structure of the present embodiment.
As a plate used for the MEA plate, CytoView MEA Plate (commercially available from Axion Biosystems) having 6×8 wells (a total of 48 wells) and a micro electrode array on the well bottom was used. […]
In the main test, the action potential of neurons adhered onto a micro electrode 3 arranged on the well bottom as shown in FIG. 1 was measured as an extracellular potential, and the neurotoxicity was evaluated from the change in extracellular potential when the test compound was treated. […]
That is, using maestro Pro (commercially available from Axion Biosystems), for the prepared MEA Cytoview Plate (commercially available from Axion Biosystems), the results of the extracellular potential of the cultured product 2 composed of cell masses containing hiPSC-Neuron and astrocytes derived from a human fetus, which were adhered to the well bottom 1 shown in FIG. 1 and FIG. 2, measured using maestro Pro for 10 minutes are illustrated as a raster plot 6 of FIG. 3 and a graph 7 of the number of detected spikes. […] The spontaneous firing frequency (Hz) can be detected from the number of peaks in the graph […]. […]

CC[C@@H]1C(=O)OC[C@@H]1Cc1cncn1C [Pilocarpine]
response rate to the test compound (firing frequency after exposure): ≥ 4 times
